Among the data in the supplement of paper PMC6411743 are NP40-soluble protein abundance values, retold here.

This assay concerns the target T1, PHB (UniProt P35232).
T1 sequence (whole entry): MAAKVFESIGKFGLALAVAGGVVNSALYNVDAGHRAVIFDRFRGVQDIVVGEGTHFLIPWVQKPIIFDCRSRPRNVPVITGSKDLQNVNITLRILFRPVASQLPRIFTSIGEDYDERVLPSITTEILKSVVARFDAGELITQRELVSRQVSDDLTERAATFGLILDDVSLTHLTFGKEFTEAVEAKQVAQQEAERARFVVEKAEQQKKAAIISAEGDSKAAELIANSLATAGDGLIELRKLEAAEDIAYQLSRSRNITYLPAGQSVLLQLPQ
Briefly: NP40-soluble protein abundance relative to vehicle (solubility fold change) (ratio); higher = more soluble protein in presence of GTP. As for the experimental part:
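Solubility proteome profiling in Jurkat crude lysate. Lysate was treated with Mg-GTP (0.1-10 mM) for 10 min at room temperature and 3 min at 37 °C, then solubilised with 0.8% NP40 and benzonase, followed by ultracentrifugation. Proteins were quantified by TMT10 LC-MS/MS; the value is the NP40-soluble abundance relative to the NP40-processed vehicle, from 3 independent experiments.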

± gives the standard deviation of the averaged measurements. This is one part of the list.

With `Nc1nc2c(ncn2[C@@H]2O[C@H](COP(=O)(O)OP(=O)(O)OP(=O)(O)O)[C@@H](O)[C@H]2O)c(=O)[nH]1` [guanosine triphosphate], the NP40-soluble protein abundance (concentration: 0.1mM) is 1.01 ± 0.038; the NP40-soluble protein abundance (concentration: 0.5mM) was 1.04 ± 0.085; the NP40-soluble protein abundance (concentration: 1mM) amounted to 0.966 ± 0.073; the NP40-soluble protein abundance (concentration: 2mM) amounted to 0.98 ± 0.13; the NP40-soluble protein abundance (concentration: 4mM) was found to be 0.995 ± 0.12; the NP40-soluble protein abundance (concentration: 6mM) was 0.942 ± 0.11. Also, the NP40-soluble protein abundance is 0.974 ± 0.098 (concentration: 8mM) and 0.932 ± 0.12 (concentration: 10mM).
